The results in this text go back to paper PMC11852855.

The target in experiment [1] is T1, Flag-CLTA (clathrin light chain) (UniProt P09496).
T1 sequence: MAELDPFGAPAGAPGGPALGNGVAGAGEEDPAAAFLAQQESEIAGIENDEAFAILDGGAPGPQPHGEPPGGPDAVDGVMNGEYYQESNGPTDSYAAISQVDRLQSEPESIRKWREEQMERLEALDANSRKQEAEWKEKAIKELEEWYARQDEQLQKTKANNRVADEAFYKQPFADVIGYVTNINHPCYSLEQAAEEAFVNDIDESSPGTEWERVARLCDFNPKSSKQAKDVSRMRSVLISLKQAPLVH
The experiment in a line: co-IP; HEK 293T cells co-transfected with the plasmids, 24 h; lysed at 4°C in NP40 buffer; antibody on protein G Dynabeads (anti-Flag binding beads), washed in 0.02% PBST, eluted with 50 mM glycine pH 2.8; immunoblot. (A western blot detects proteins with antibodies after separation by electrophoresis.)

In experiment [2] the target is T2, Flag-EPS15 (UniProt P42566).
T2 sequence: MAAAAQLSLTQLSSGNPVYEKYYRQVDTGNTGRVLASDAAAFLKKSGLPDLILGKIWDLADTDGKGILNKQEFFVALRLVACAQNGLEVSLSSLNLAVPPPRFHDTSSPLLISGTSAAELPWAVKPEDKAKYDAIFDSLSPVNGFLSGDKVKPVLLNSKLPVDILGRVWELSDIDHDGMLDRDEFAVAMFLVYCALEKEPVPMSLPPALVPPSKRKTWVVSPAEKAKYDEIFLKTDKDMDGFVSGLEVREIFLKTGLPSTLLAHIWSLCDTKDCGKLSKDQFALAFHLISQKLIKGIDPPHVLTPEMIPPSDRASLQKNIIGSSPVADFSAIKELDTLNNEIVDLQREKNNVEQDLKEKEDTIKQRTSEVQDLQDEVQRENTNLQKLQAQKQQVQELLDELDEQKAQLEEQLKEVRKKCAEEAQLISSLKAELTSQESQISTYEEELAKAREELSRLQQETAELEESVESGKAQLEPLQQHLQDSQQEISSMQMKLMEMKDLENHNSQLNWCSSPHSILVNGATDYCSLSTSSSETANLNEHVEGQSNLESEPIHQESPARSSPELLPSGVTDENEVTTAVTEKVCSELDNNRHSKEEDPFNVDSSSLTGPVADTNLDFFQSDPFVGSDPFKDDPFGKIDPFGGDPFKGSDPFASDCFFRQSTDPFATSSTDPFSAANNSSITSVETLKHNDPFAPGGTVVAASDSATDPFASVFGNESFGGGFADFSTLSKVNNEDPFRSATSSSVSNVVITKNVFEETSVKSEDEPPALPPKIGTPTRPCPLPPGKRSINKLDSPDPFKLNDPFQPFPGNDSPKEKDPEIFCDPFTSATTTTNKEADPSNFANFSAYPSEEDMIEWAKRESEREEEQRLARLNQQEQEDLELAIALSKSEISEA
Described as above.

Results are given in words; binding and its absence hold for the method and conditions named. Binding seen in cells or lysates may run through a third protein. Binding can be weak; no strength is given. Tags and fused reporters may be left off the sequences shown.

For “HA-E (PEDV envelope protein) (porcine epidemic diarrhea virus (PEDV))”, the binding entry in experiment [1] and in experiment [2] was “binds” each time.
